Among all 53,000 sequences or so, about 3,700 (7%) were called active.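 The calls were made as follows: active = gene knockdowns whose robust z-score for IL-1 alpha signal is at least 2 or at most -2, so actives lie on both sides; inactive = the rest.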 The list shows a part of the results.
Experiment: Components of the Cytosolic LPS Sensing Pathway: Gene Identification via Genome-wide siRNA Screen;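 also: robust z of the log signal after scaling to non-targeting control siRNA wells of the plate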
Settings: RAW264.7 macrophages, IL-1a HTRF, actives lie on both sides, screened at 100 nM (by protocol), cells primed 5 h with Pam3CSK4 first
Outline: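 IL-1a HTRF of supernatants after 24 hour LipidA transfection of Pam3CSK4-primed (5 hours) RAW264.7 cells, 48h post-siRNA transfection (100 nM). Scores: percent of plate negative-control median, then log-based robust z-score.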
With GGAGCAGGACGAGAAUCAATT against Cdkn1c the z-score was active: 3.62.
In the case of GGGCAAAAUAGAAGUGAAUTT against Ripor2, the z-score is reported as inactive: -1.5.
With GGUCCACUGAUUCUGAUAATT against Cyp4a31 the z-score was inactive: 1.79.
For GGACACACACACAAAUUUGTT against Vps29, the z-score was inactive: -1.97.
In the case of GCUUUUUGAUCACGUCGCUTT against Hk1, the z-score is reported as inactive: -0.373.
With GGCAUUGACAUCAUGUACUTT against Agxt the z-score was inactive: 1.1.
With GGACAGAUGAGAGAGAAUUTT against Ttl the z-score was inactive: -0.601.
With GGUUUGGUGAAAACAAUCGTT against Akr1b3 the z-score was inactive: 0.443.
In the case of GGAUUGGUGCAACUUCAGATT against Sp4, the z-score is reported as inactive: 0.565.
For GGUUGUCAUAAUCUUGUUATT against Irgq, the z-score was inactive: -0.59.
For GGUUAUAUCCAUGUGACACTT against Nkg7, the z-score was inactive: -1.15.
For GGUUUUUACAGAAGUACAUTT against Atm, the z-score was inactive: 0.19.
With GGGUUAUAGCUAUAGGACUTT against Olfr64 the z-score was inactive: 0.887.
In the case of GGAAAAACUUCACCUUUGGTT against B3galt1, the z-score is reported as inactive: -1.25.
With CCCUUCUUCGGGUUUUAACTT against Kcna3 the z-score was active: 3.08.
With GGAUUGAGACCUCACAGUGTT against Gorasp2 the z-score was inactive: -0.596.
In the case of GGCCAUAAAGGAAAGAGCUTT against Actr1a, the z-score is reported as inactive: 0.3.
In the case of GGGCCUGUUAAGCUCAAAGTT against Kmt2b, the z-score is reported as inactive: -0.717.
In the case of GCACGAUGUCUCAGCUCUATT against Nipal3, the z-score is reported as active: -2.89.
For GGAAGCAGAUGCAGCUGUUTT against Nat8f5, the z-score was inactive: 0.348.
With GGAAAAGCAGAUUGAAAUGTT against Gbp2b the z-score was inactive: -1.24.
With CGAAAACAUUAACCUUGGUTT against Mylip the z-score was inactive: -0.863.
With GUCUUUACCGACUGGUUAGTT against Ldoc1 the z-score was inactive: -1.6.
With CGUACUAUGGUGCUUUCAUTT against Map4k4 the z-score was inactive: 1.19.
For GGCCUACUCAAUCAAAGACTT against Tigd5, the z-score was inactive: 0.48.
For CUGAUUCUGGGAAACAGUATT against Tas2r123, the z-score was inactive: -0.968.
With GCAACAGUUAACCAUUAGCTT against Ms4a6b the z-score was inactive: 0.547.
In the case of CCAGAAUGUAAAACAACCGTT against Zfp365, the z-score is reported as inactive: 0.588.
In the case of GGCUUUCUAUCAAUUUGUGTT against Rlim, the z-score is reported as inactive: 0.808.
For “GGACAGCGAUAUCUCAAUATT against 1700001P01Rik”, the z-score was inactive: 0.221.
For CCUGCUCAAACUUUUGUGGTT against Ephx4, the z-score was inactive: 0.928.
With GCCUGACUUUAAUGAAGAATT against Slf2 the z-score was inactive: -1.77.
In the case of GGUGAAUAGAACAUCAUCUTT against Lrrc29, the z-score is reported as inactive: -1.76.
For GGAUUUAUUUGCCAACACUTT against Actbl2, the z-score was active: -2.28.
For GGUCUUCAGCCCAAGAAAUTT against Dsg2, the z-score was inactive: 0.127.
For GGUGUCUGAUUCUAACAUATT against Catsper4, the z-score was inactive: 0.589.
With GCUGUGUCACUACUUCGAUTT against Rpp40 the z-score was inactive: 1.32.
For GCUGUCGACUUUAAAAGGUTT against Pcdhga7, the z-score was inactive: -0.356.
For CCUGUCAAAGUUGUAAAAGTT against Zar1, the z-score was inactive: -1.49.
In the case of GUUGGUUGUAGGUACUUAUTT against Olfr487, the z-score is reported as inactive: -1.4.
In the case of GGAUACGAUUGAACGGCUGTT against Rac3, the z-score is reported as inactive: -0.566.
With GCAUCACCAAGACUCGGAATT against Sun2 the z-score was inactive: 0.9.
With CCAUACUUAUGCCAGCCUGTT against Tfeb the z-score was inactive: 0.162.
With GGAAGAGAUAAGAAGAGAGTT against Faim the z-score was inactive: 1.57.
In the case of GGUCUAAAAUUGUGCUAAATT against Klhl32, the z-score is reported as inactive: 0.877.
For GGCGAGAAAUUCUUCACAUTT against Plxna3, the z-score was inactive: -1.51.
For GCAUCACUGCCACAGUGCATT against Olfr159, the z-score was inactive: -0.133.
With GGCCGAUAUGGUGUUUAGATT against Tomm40l the z-score was inactive: 1.61.
With GGCUAUUACCAUGGCCACUTT against Smim5 the z-score was active: -2.85.
With GCAGUGUUGAGACCAACAUTT against C1qtnf3 the z-score was inactive: -0.875.
In the case of GCAGAUUGAAUCAUCCAUGTT against Zc3hc1, the z-score is reported as inactive: -0.625.
For CGGUUCUGGGAAUUCUUUGTT against Olfr624, the z-score was active: -2.11.
In the case of UUUGAACAGUCACUCCUCGTT against Ipcef1, the z-score is reported as active: 2.18.
In the case of GGGAUGCAGUAAAUGUGUATT against Acaa1a, the z-score is reported as inactive: 0.00646.
With “GCUGUAGUUCCCUGGCCUATT against 2310057N15Rik” the z-score was inactive: -0.423.
In the case of CCUAGAGGAAGAUUUCGAUTT against Cacna1h, the z-score is reported as inactive: -0.613.
In the case of CCUCUGGUUGUAAAAACAUTT against Rpp38, the z-score is reported as inactive: -0.682.
With GUUCGAAAAGGGAAUGAUATT against Arap2 the z-score was inactive: -0.0156.
In the case of GGAGGGAAUCAGAGAACAGTT against Zfp738, the z-score is reported as inactive: 0.789.
In the case of GGAUUUUUGCACUCAGUAATT against Olfr1256, the z-score is reported as inactive: 1.26.
In the case of CCUUACCAUCGUCUUCAAGTT against Cmklr1, the z-score is reported as inactive: -0.29.
For GGCAAACUAUGCCUUCAAGTT against Cib2, the z-score was inactive: -0.157.
With GGUACUUUAGACAAGAGAGTT against Cybc1 the z-score was inactive: 1.01.
In the case of CGUAGUAGCCACGUCUACUTT against Eci3, the z-score is reported as inactive: 0.404.
In the case of GGAUGACAGUGUGAUUGUGTT against Ikzf4, the z-score is reported as inactive: -0.47.
In the case of GGGUCCACAUCUUGAGCUUTT against Fxyd7, the z-score is reported as inactive: 0.453.
With CCCUAAUAAAUUCCAAAUCTT against H2-Ke6 the z-score was inactive: 1.81.
With GGAAGACAGCACCAUGAACTT against Il17f the z-score was inactive: -0.205.
For GGAGAGACCUCUGAGAUUGTT against Ephb6, the z-score was inactive: -0.486.
With GACUGCUACAAGGUGAAGATT against Mrpl36 the z-score was inactive: -1.22.
With GCCCUAGAACUUUUGAAUUTT against Dhx15 the z-score was inactive: 0.162.
In the case of CCUUAAGAUCAUUUACCCATT against Mixl1, the z-score is reported as inactive: -0.13.
For GUACCUGAAGCCAGUGUUGTT against Prmt3, the z-score was inactive: 1.04.
With GGUGUGUAUGAUGCUGGCATT against Olfr1508 the z-score was inactive: -0.0763.
For GUGAAGACAUCAGCAGACUTT against Aspdh, the z-score was inactive: 0.0149.
For CCACUCUAAUGAUGUUUUUTT against Slc46a3, the z-score was inactive: 0.411.
With GGCAAAUAAAUGAUCCAAATT against Echs1 the z-score was inactive: 1.97.
For GGUAGCAGUAGGAUACUUCTT against Cenpi, the z-score was inactive: -0.554.
In the case of GGGAUCCGAAUUCUGACCATT against Tlcd2, the z-score is reported as inactive: 0.108.
With GGUCAAAUGCACCCGAUUATT against Hoxc10 the z-score was active: 2.44.
For GGAGAUGAUUUCCUACUUCTT against Rasgrp2, the z-score was active: 3.47.
In the case of GGGACCACUGUGUAUUGACTT against Creld2, the z-score is reported as inactive: -0.0613.
With GGUCGAACAGAAGAUUGCUTT against Got1 the z-score was inactive: -1.36.
In the case of GCCAAUGGACCACAAACUGTT against Cers6, the z-score is reported as inactive: 0.565.
In the case of GGAUUGGGUUACAUACAGATT against Scgb2b2, the z-score is reported as inactive: -0.0731.
In the case of GCUGAACUAUAACUUGAAATT against Stat1, the z-score is reported as inactive: -1.08.
For GCAGGUGAAAGUGCAGAUCTT against Timm13, the z-score was active: 3.35.
In the case of CCACAGACAGUUAUUACUGTT against Adgre1, the z-score is reported as inactive: -1.
In the case of GCCACUUCAUAUUUUUGACTT against Ppwd1, the z-score is reported as inactive: 0.000386.
In the case of CCCUAGCUAUAAAACUCUCTT against Rabif, the z-score is reported as inactive: 1.45.
For GGCAUUGAACAAGAAAGAATT against Mef2c, the z-score was inactive: -0.94.
For AGCUGACUGUAAAAAAACCTT against Fuom, the z-score was inactive: 0.19.
In the case of GGAUCUAUAUCCAGUAGAGTT against Mief2, the z-score is reported as active: 3.38.
For GGAUAAUAGCAGCUUAUACTT against Ccl11, the z-score was inactive: -0.399.
For GGAAGAGAGUCUGCCUGGUTT against Acot5, the z-score was inactive: -0.046.
For GGGCCAUCACACACCCUAATT against Ctrl, the z-score was inactive: 0.314.
With GGAAAGAGCACCAAUUUUUTT against Ccr5 the z-score was inactive: 1.43.
With CGAACUCAAGAGUGUGGAGTT against Becn1 the z-score was inactive: 0.641.
In the case of GGUCCUGUGGAUAACAAUATT against Inha, the z-score is reported as inactive: 0.437.
With GCAUUACCAAGGCGAUUUUTT against Ren2 the z-score was inactive: 0.191.
For GGCACGGAAAUCUUUACAATT against Tmem214, the z-score was inactive: -0.0138.
For GGUUCAGUCAAGAAUUGCUTT against Clec4e, the z-score was inactive: 1.68.
With GGACUCAAGAGAAAUUCAATT against Nod2 the z-score was active: 2.19.
With GGCAACAGGACUGCCAAAUTT against Arhgap12 the z-score was inactive: -0.807.
In the case of “GGAGCAUUGCUUCUCUGACTT against 6030445D17Rik”, the z-score is reported as inactive: 0.954.
In the case of GGGCAUCCAGGAUUAUGUGTT against Vamp5, the z-score is reported as inactive: -0.245.
For AGAGAUGGAAAGUGGUUUCTT against Olfr1226, the z-score was inactive: 1.18.

From PubChem BioAssay AID1508600 (Functional Genomics Laboratory (NCATS/FGL), 2020)
